Hit rate of the full screen: of about 360,000 compounds, about 200 (0.056%) were called active. Inconclusive results, whose numbers are uncertain, are shown with a selection of clear calls.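 How the source made its calls: active means mean normalized replicate activation at least 10% and every replicate at or above 10%; inconclusive means only one of the two criteria met; inactive means mean below 10% and not all replicates reach 10%.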
Assay: activators of inactive X chromosome reactivation, primary screen, imaging, XiGFP fibroblasts, GFP high-content imaging, set 2 (AID 743238);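 further: 0% = median of on-plate neutral control wells and 100% = ellipticine 6 µM median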
Details: XiGFP mouse fibroblasts, % GFP-positive cells imaging, 3 d; at 7.58 µM; active compounds read high; cells co-treated with 5-aza-dC sensitizer; scaled so ellipticine positive control = 100%
How it was run: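 Material: SV40-immortalized XiGFP fibroblast cells, line 68-5-11 | Buffer or medium: DMEM containing 5-aza-dC | Dosing: One concentration, pinned | Times: 3 d treatment, 15 min room-temperature fixation | Controls: Ellipticine 6 µM positive control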

Which activation does the source give for `COc1ccc(S(=O)(=O)Nc2cccc3c2O[C@H](CN(C)S(=O)(=O)c2cn(C)cn2)[C@H](C)CN([C@H](C)CO)C3=O)cc1` here?
The activation was inconclusive: 11.5%.

With `CCCC#Cc1ccc([C@H]2[C@@H](CO)N3C(=O)CN(C(=O)NC4CCCC4)C[C@H]23)cc1` as the molecule, how does the activation read?
Its activation is inactive: 0.003%.

For `COc1ccc(C(=O)N/N=C/c2cc(Br)ccc2O)cc1OC`, which activation is on record?
Its activation is inconclusive: 29.5%.

Which activation does the source give for `Cc1ccccc1C1c2[nH]c3ccccc3c2CCN1Cc1cccn1-c1ncccn1` (stereo not drawn) here?
The activation was inconclusive: 16.7%.

With `Cn1c2ccccc2c2cnn(CC(=O)Nc3ccccc3Br)c(=O)c21` as the molecule, how does the activation read?
Its activation is inconclusive: 16.4%.

For `Oc1cccc(/C=N/NC(=S)NCCN2CCOCC2)c1O`, which activation is on record?
Its activation is inconclusive: 23.3%.

With `Cc1occc1C(=O)N/N=C/C(Br)=C\c1ccccc1` as the molecule, how does the activation read?
Its activation is inconclusive: 29.8%.

Which activation does the source give for `CCC/C(=C1/c2ccccc2C(=O)N1c1ccccc1)c1c(C)noc1C` here?
Its activation is inactive: -0.104%.

With `CCC(=O)OCCNc1cc(Sc2nc3ccccc3[nH]2)c2nonc2c1[N+](=O)[O-]` as the molecule, how does the activation read?
The activation was active: 16.2%.

With `C[C@H](NC(=O)C[C@H]1CC[C@@H](NC(=O)Cc2ccccn2)[C@@H](CO)O1)c1ccccc1` as the molecule, how does the activation read?
The activation was inconclusive: 11.8%.

Which activation does the source give for `COc1ccc(NC(=O)Nc2ccc3c(c2)CC(=O)N([C@H](C)CO)C[C@H](C)[C@@H](CN(C)S(=O)(=O)c2ccc(F)cc2)O3)cc1` here?
The activation was active: 14.7%.

Which activation does the source give for `COc1ccc(NC(=O)Nc2ccc3c(c2)CC(=O)N([C@H](C)CO)C[C@@H](C)[C@@H](CN(C)S(=O)(=O)c2cn(C)cn2)O3)cc1` here?
Its activation is inactive: -1.03%.

With `COc1ccc(/C=c2/sc3nc(-c4ccccc4)c(-c4ccccc4)n3c2=O)cc1` as the molecule, how does the activation read?
The activation was inconclusive: 24.3%.

With `CCN(CCCNc1cc2c(c(N)c1S(=O)(=O)O)C(=O)c1ccccc1C2=O)c1ccccc1` as the molecule, how does the activation read?
Its activation is inactive: 0.281%.

With `CCOC(=O)c1cnc(-c2ccc(C(F)(F)F)cn2)[nH]c1=O` as the molecule, how does the activation read?
Its activation is inconclusive: 18.8%.

For `Cc1[nH]c2ccc(Br)cc2c(=O)c1CN1CCCCCC1`, which activation is on record?
The activation was inconclusive: 28.5%.

For `COC(=O)C(C(C)C)N1CCc2c(C)nc3c(C#N)cnn3c21` (stereo not drawn), which activation is on record?
The activation was inconclusive: 19.4%.

Which activation does the source give for `O=C1c2cccc3c([N+](=O)[O-])ccc(c23)C(=O)N1CC1CCCO1` (stereo not drawn) here?
Its activation is inconclusive: 15.1%.

Which activation does the source give for `O=[N+]([O-])c1ccc(/C=C/C2=NN(c3ccccc3)C(c3ccco3)C2)cc1` (stereo not drawn) here?
The activation was active: 89%.

For `OC[C@@H]1[C@H](c2ccc(C#Cc3ccccc3F)cc2)[C@H]2CN(Cc3cncnc3)CCCCN12`, which activation is on record?
Its activation is inactive: 0.017%.

For `O=C1NC(=S)S/C1=C\C=C\c1ccc([N+](=O)[O-])o1`, which activation is on record?
The activation was inconclusive: 13%.

With `COc1ccc2c(c1)C(C)=CC(C)(C)N2S(=O)(=O)c1ccc(Br)cc1` as the molecule, how does the activation read?
Its activation is inconclusive: 24.2%.

For `COc1cc(/C=C2\NC(=S)N(C)C2=O)ccc1OCc1ccccc1F`, which activation is on record?
Its activation is inactive: 0.0705%.

For `CCc1ccc(NS(=O)(=O)c2ccc3[nH]cc(C(=O)N4CCc5ccccc54)c(=O)c3c2)cc1`, which activation is on record?
The activation was inconclusive: 28.2%.

Which activation does the source give for `COc1ccc2c(c1)c(/C=N/Nc1nc3ccccc3[nH]1)c(C)n2C` here?
Its activation is active: 17.1%.

With `C[C@H](NC(=O)[C@@H]1[C@@H](CO)[C@@H]2Cn3c(cccc3=O)[C@H]1N2C(=O)C1CCCC1)c1ccccc1` as the molecule, how does the activation read?
The activation was inactive: 0.027%.

For `COc1ccc(/C=C/c2ccc3cccc(O)c3n2)c(OC)c1OC`, which activation is on record?
Its activation is inconclusive: 12.9%.

For `Cc1ccccc1-c1ccc(C2[C@@H]3CN(Cc4cocn4)C[C@H]2N3)cc1` (stereo partly drawn), which activation is on record?
The activation was inconclusive: 12.5%.

With `Cc1ccc(-c2nn(Cc3ccccc3)cc2C(=O)NCC2CCCO2)cc1` (stereo not drawn) as the molecule, how does the activation read?
The activation was inactive: 0.0015%.

Which activation does the source give for `CC(=O)OCCNc1cc(Sc2nc3ccccc3[nH]2)c2nonc2c1[N+](=O)[O-]` here?
The activation was active: 17%.

Which activation does the source give for `COc1ccc2c3c(n(C)c2c1)[C@@H](CO)N(Cc1ccccc1OC)CC31CCN(C)CC1` here?
Its activation is inconclusive: 21.1%.

With `CC[n+]1c(/C=C/C=C/N(C(C)=O)c2ccccc2)sc2cc(OC)ccc21` as the molecule, how does the activation read?
Its activation is active: 51.6%.

Which activation does the source give for `COc1ccc(S(=O)(=O)N(C)C[C@@H]2OCc3cn(nn3)CCCC(=O)N([C@@H](C)CO)C[C@@H]2C)cc1` here?
The activation was inconclusive: 13%.

Which activation does the source give for `CCCCOc1nc2ccccc2nc1NS(=O)(=O)c1ccc(F)cc1` here?
Its activation is inconclusive: 45.8%.

Which activation does the source give for `Nc1nc(C2CCOCC2)cs1` here?
The activation was inconclusive: 10.7%.

Which activation does the source give for `COc1ccc(/C=C/c2nnc(NC(=O)C(C)(C)C)s2)cc1` here?
Its activation is inactive: -0.12%.

For `CCCNNC(=O)C(O)(c1ccccc1)c1ccccc1`, which activation is on record?
Its activation is inconclusive: 25%.

For `COCCNC(=O)CSc1nc2scc(-c3ccccc3)c2c(=O)[nH]1`, which activation is on record?
Its activation is inconclusive: 74.4%.

Which activation does the source give for `OC[C@H]1O[C@@H](c2nc(-c3ccc(Br)cc3)no2)C[C@@H]1O` here?
The activation was inactive: -0.0045%.

Which activation does the source give for `COc1ccc2c3c(n(C)c2c1)[C@H](CO)N(Cc1ccccc1F)CC31CCN(CC2CC2)CC1` here?
Its activation is inconclusive: 32.9%.

Which activation does the source give for `COc1ccc(C2=C(c3ccccc3)OC(OC)c3cc(F)ccc32)cn1` (stereo not drawn) here?
Its activation is inconclusive: 45.2%.

With `C[C@@H]1ON(C)[C@H]2C[C@H]3c4cc(-c5cccc(F)c5)ccc4CCN3C(=O)[C@@H]12` as the molecule, how does the activation read?
The activation was inconclusive: 21.2%.

Which activation does the source give for `COc1ccc(NC(=O)Nc2ccc3c(c2)C(=O)N([C@@H](C)CO)C[C@H](C)[C@@H](CN(C)S(=O)(=O)c2ccc(OC)cc2)O3)cc1` here?
Its activation is inconclusive: 29.5%.

For `Cc1ccc(OCCN2CCN(CC(O)Cn3c4ccccc4c4ccccc43)CC2)cc1` (stereo not drawn), which activation is on record?
Its activation is inconclusive: 10.8%.

Which activation does the source give for `N#C/C(=C\c1ccc(N2CCCCC2)o1)C(=O)Nc1cccc(Br)c1` here?
Its activation is active: 93.7%.

For `Cc1ccsc1/C=N/n1c(-c2cc(-c3ccccc3)n[nH]2)n[nH]c1=S`, which activation is on record?
Its activation is inconclusive: 25.4%.

With `O=S(=O)(Nc1cccc(S(=O)(=O)N2CCOCC2)c1)c1ccc(Cl)s1` as the molecule, how does the activation read?
The activation was inactive: 0%.

With `N#CC(C#N)=C1C=CC=CN1/C(=C\c1ccco1)C(=O)c1ccc(Br)cc1` as the molecule, how does the activation read?
The activation was inconclusive: 11.8%.

With `CCOc1ccc(NC(=S)NC(C)c2cccs2)cc1` (stereo not drawn) as the molecule, how does the activation read?
Its activation is inconclusive: 20.2%.

For `Cc1nnc(SCc2cc(=O)oc3ccc4ccccc4c23)n1Cc1ccccc1`, which activation is on record?
The activation was inconclusive: 11.4%.

For `COc1cc(/C=C/C(=O)c2ccc([N+](=O)[O-])o2)ccc1O`, which activation is on record?
Its activation is active: 20.5%.

Which activation does the source give for `Oc1c(CN2CCOCC2)ccc2ccccc12` here?
Its activation is inconclusive: 13.3%.

Which activation does the source give for `CCCC#Cc1ccc([C@H]2[C@H](CO)N3CCCCN(S(=O)(=O)c4ccccc4C)C[C@@H]23)cc1` here?
Its activation is inactive: -0.0035%.

With `N#C/C(=C/c1ccc(N2CCCCC2)o1)C(=O)NCCc1c[nH]c2ccccc12` as the molecule, how does the activation read?
The activation was active: 119%.

With `C[C@H](CO)N1C[C@H](C)[C@H](CN(C)S(=O)(=O)c2ccc(Cl)cc2)Oc2ccc(NC(=O)Nc3ccc4c(c3)OCO4)cc2CC1=O` as the molecule, how does the activation read?
Its activation is inactive: 0.395%.

For `O=C(c1ccncc1)N(c1ccc2oc3c(c2c1)CCCC3)S(=O)(=O)c1cccc([N+](=O)[O-])c1`, which activation is on record?
Its activation is inactive: 0.0745%.

For `CCOc1ccccc1N1C(=O)CC(Sc2nccc(C)n2)C1=O` (stereo not drawn), which activation is on record?
Its activation is inconclusive: 20.2%.

Which activation does the source give for `C[C@H](CO)N1C[C@H](C)[C@H](CN(C)Cc2ccccc2)Oc2ccc(NS(C)(=O)=O)cc2C1=O` here?
The activation was inconclusive: 16.7%.

For `CCS(=O)(=O)N1CCC2(CC1)CN(S(=O)(=O)c1ccccc1)[C@H](CO)c1c2c2ccc(OC)cc2n1C`, which activation is on record?
The activation was inactive: 0.407%.

With `CCCCNc1nc2c(-c3ccccc3)nnn2c2ccccc12` as the molecule, how does the activation read?
The activation was inconclusive: 13.6%.

With `CC(C)(O)C#Cc1ccc([C@@H]2[C@H](CO)N3CCCCN(S(C)(=O)=O)C[C@@H]23)cc1` as the molecule, how does the activation read?
Its activation is inactive: 0.007%.

With `COc1cccc(-c2ccc([C@H]3[C@@H](CO)N4C(=O)CN(C(=O)C5CCC5)C[C@@H]34)cc2)c1` as the molecule, how does the activation read?
The activation was inactive: 0.029%.

With `COc1ccc(S(=O)(=O)Nc2ccc3c(c2)C(=O)N([C@H](C)CO)C[C@H](C)[C@@H](CN(C)Cc2ccc(C(F)(F)F)cc2)OCCCC[C@@H](C)O3)cc1` as the molecule, how does the activation read?
The activation was inactive: 0.0915%.

Which activation does the source give for `NNC(=O)/C(=C\c1ccc(Br)cc1)NC(=O)c1cccs1` here?
The activation was inconclusive: 30.3%.

Which activation does the source give for `O=C(O)c1ccc(COc2ccccc2C=C2C(=O)c3ccccc3C2=O)cc1` here?
Its activation is inconclusive: 15%.

With `Nc1c(C(=O)Nc2ccc(S(=O)(=O)N3CCCC3)cc2)sc2nc3cc4c(cc3cc12)CCC4` as the molecule, how does the activation read?
Its activation is active: 63.2%.

Which activation does the source give for `Cc1[nH]c2ccccc2c1/C=N/Nc1nc2ccccc2[nH]1` here?
The activation was active: 17.2%.

With `COc1ccc(OCCN2CCC(C(=O)NC(c3ccc(C)cc3)c3ccccn3)CC2)cc1` (stereo not drawn) as the molecule, how does the activation read?
The activation was inconclusive: 27.7%.

With `CN(C)c1ccc(C2CC(c3cccc(NS(C)(=O)=O)c3)=NN2C(=O)c2ccccc2)cc1` (stereo not drawn) as the molecule, how does the activation read?
The activation was inconclusive: 14.2%.

For `O=C(NCC1CCCO1)c1cc(-c2ccccc2F)no1` (stereo not drawn), which activation is on record?
The activation was inactive: 0.025%.

For `Cn1cc(C(=O)N/N=C/C(Br)=C/c2ccccc2)ccc1=O`, which activation is on record?
The activation was inconclusive: 14.8%.

Which activation does the source give for `CNC(=O)C[C@H]1C(=O)N(c2ccccc2)C[C@@H]1C` here?
The activation was inconclusive: 40.7%.

For `COc1ccc(NC(=O)Nc2ccc3c(c2)C(=O)N([C@H](C)CO)C[C@H](C)[C@H](CN(C)Cc2ccc4c(c2)OCO4)O3)cc1`, which activation is on record?
The activation was inconclusive: 10.2%.

Which activation does the source give for `CN(C)/C=C1\C=C2C(=O)c3ccccc3N2C1=O` here?
Its activation is inconclusive: 14.9%.

With `COc1ccccc1-[n+]1c(C)cc(/C=C2\Sc3ccccc3N2C)cc1C` as the molecule, how does the activation read?
Its activation is active: 101%.

Which activation does the source give for `COc1cc(C)ccc1OCc1cc(C(=O)NCCN2CCCC(O)C2)no1` (stereo not drawn) here?
The activation was inactive: 0.019%.

With `CC(C)(C)NC(=O)C(c1c[nH]c2ccccc12)N(C(=O)Cn1nnc(-c2ccc(Cl)cc2)n1)c1ccccc1F` (stereo not drawn) as the molecule, how does the activation read?
Its activation is inconclusive: 22.3%.

With `Cc1ccc(N=Nc2ccc(O)c3ncccc23)cc1` as the molecule, how does the activation read?
Its activation is inactive: 0.697%.

Source: PubChem BioAssay AID743238 (Broad Institute, 2013)
